From paper PMC5986867
These are yes or no findings as the source states them, for the method shown. In cells and extracts the contact can be indirect. Some binding calls cover weakened binding; strength is not graded here.

Protein sequences, listed by entry. Tags and fused reporters are not part of them.
UniProt P17096: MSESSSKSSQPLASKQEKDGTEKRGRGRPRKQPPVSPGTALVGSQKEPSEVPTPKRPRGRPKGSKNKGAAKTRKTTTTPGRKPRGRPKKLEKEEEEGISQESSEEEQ
UniProt Q12778: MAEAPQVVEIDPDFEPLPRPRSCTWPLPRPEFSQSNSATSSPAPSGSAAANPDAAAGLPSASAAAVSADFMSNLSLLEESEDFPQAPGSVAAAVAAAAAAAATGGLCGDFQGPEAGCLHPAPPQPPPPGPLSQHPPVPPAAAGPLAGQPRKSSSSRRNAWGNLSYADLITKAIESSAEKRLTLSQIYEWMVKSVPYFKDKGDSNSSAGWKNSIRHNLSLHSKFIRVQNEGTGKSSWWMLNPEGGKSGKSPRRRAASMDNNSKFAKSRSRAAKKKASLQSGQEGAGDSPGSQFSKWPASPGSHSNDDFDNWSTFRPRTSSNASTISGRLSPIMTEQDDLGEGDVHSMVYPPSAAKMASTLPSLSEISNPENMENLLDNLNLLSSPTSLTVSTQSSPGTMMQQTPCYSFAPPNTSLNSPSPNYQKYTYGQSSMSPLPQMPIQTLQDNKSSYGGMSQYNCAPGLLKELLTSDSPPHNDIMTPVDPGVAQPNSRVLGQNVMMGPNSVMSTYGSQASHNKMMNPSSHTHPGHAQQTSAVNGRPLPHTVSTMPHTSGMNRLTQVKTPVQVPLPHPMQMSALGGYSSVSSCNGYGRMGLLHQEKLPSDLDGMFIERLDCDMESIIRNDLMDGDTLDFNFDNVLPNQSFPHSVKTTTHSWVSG
UniProt Q9R1E0: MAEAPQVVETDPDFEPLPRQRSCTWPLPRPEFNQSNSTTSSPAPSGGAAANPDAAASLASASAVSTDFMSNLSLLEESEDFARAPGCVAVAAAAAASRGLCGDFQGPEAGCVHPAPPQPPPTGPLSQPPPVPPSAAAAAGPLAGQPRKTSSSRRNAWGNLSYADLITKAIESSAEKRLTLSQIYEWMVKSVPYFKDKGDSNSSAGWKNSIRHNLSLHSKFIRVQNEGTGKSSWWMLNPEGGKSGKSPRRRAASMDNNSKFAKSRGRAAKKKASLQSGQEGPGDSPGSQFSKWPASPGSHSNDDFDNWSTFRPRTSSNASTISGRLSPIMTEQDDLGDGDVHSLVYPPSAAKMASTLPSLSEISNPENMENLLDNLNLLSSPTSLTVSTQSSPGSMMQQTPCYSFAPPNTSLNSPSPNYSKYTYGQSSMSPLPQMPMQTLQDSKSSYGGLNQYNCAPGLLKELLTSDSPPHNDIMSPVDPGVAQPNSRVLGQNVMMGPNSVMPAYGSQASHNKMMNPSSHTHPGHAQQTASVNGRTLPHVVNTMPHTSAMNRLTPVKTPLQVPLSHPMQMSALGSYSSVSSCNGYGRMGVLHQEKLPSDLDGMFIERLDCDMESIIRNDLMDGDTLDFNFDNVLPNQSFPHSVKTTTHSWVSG

Tests used:
YFP-HMGA1a (human) = YFP-HMGA1a (human) (UniProt P17096); test: FRET or BRET; FRET between YFP-HMGA1 and CFP-FoxO1 in living serum-starved HEK-293 cells, confocal microscopy
[1] = molecular target: HMGA1 (endogenous, HepG2 nuclear extract) (human (endogenous in HepG2)) (UniProt P17096); test: co-IP; HepG2 nuclear extract (500 µg); anti-HMGA1 antibody covalently coupled to protein A beads, 3 h at 4 °C, NETN wash buffer (150 mM NaCl, 0.1% NP-40); immunoblot for FoxO1
[2] = molecular target: T1, HMGA1 (endogenous, mouse liver extract) (mouse (endogenous in liver)) (UniProt P17095); test: co-IP; liver extracts from wild-type mice; data not shown
T1 sequence: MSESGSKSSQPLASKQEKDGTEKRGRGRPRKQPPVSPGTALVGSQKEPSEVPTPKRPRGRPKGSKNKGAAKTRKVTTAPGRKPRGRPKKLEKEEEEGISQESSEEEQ

[3] = molecular target: GST tagged human HMGA1 (human) (UniProt P17096); test: pull-down; GST-HMGA1 affinity resin or GST alone; in vitro-translated 35S-labeled FoxO1 retained, SDS-PAGE; in the absence of chromatin/DNA; only the target purified

CFP-FoxO1 (from UniProt Q12778 1-655) was tested, and the binding (YFP-HMGA1a (human)) was “binds”.

In the case of “FoxO1 (endogenous, HepG2 nuclear extract) (from UniProt Q12778 1-655)”, the binding [1] is reported as “binds”.

With “FoxO1 (endogenous, mouse liver extract) (from UniProt Q9R1E0 1-652)” the binding [2] was “binds”.

With “in vitro-translated 35S-labeled FoxO1 (from UniProt Q12778 1-655)” the binding [3] was “binds”.
